Test results reported in doi:10.1101/2025.06.01.657323.

Target: Wnt11 (neonatal cardiomyocytes) (rat (endogenous in NRVMs))
Assay: co-IP

- binding: binds
B1: Frizzled 4 (neonatal cardiomyocytes) (receptor, UniProt Q9QZH0 38-538)
chain: FGDEEERRCDPIRIAMCQNLGYNVTKMPNLVGHELQTDAELQLTTFTPLIQYGCSSQLQFFLCSVYVPMCTEKINIPIGPCGGMCLSVKRRCEPVLKEFGFAWPDSLNCSKFPPQNDHNHMCMEGPGDEEVPLPHKTPIQPGEECHSVGTNSDQYIWVKRSLNCVLKCGYDAGLYSRSAKEFTDIWMAVWASLCFISTTFTVLTFLIDSSRFSYPERPIIFLSMCYNIYSIAYIVRLTVGRERISCDFEEAAEPVLIQEGLKNTGCAIIFLLMYFFGMASSIWWVILTLTWFLAAGLKWGHEAIEMHSSYFHIAAWAIPAVKTIVILIMRLVDADELTGLCYVGNQSLDALTGFVVAPLFTYLVIGTLFIAAGLVALFKIRSNLQKDGTKTDKLERLMVKIGVFSVLYTVPATCVIACYFYEISNWALFRYSADDSNMAVEMLKIFMSLLVGITSGMWIWSAKTLHTWQKCSNRLVNSGKVKREKRGNGWVKPGKGNETVV

No constants are given. Whether binding was seen depends on the method and setting. Binding seen in cells or lysates may run through a third protein. A result given as binding can be weak or reduced; the word gives no strength.
